Results deposited as PubChem BioAssay AID602196 (INSERM, 2012).
Screen: 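Modifiers of cisplatin sensitivity in A549 cells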. System: human A549 lung cancer cells. Knock-down reagent: siRNA pair against human genes. Duration: 48 h transfection before cisplatin; time from cisplatin to read-out not stated. Challenge: cisplatin at a dose killing half of control-siRNA cells; exact dose and duration not given. Read-out: 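Cisplatin cell death as a shift from the 50% death seen with control siRNA; siRNAs toxic or growth-blocking alone scored 0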. Direction: two-siRNA summed score (-2 to +2): higher = both siRNAs protect from cisplatin killing; -2 means both sensitise; mean protection from cisplatin (shift in death) and protection from cisplatin (shift in death), siRNA C and protection from cisplatin (shift in death), siRNA D: higher = protection from cisplatin killing. Call rule: 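siRNAs harmful alone (LDH or WST-1) get 0; others get +1 for less and -1 for more cisplatin killing; genes are active when the two siRNAs give the same sign, summing to ±2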. Meaning of the calls: active = both siRNAs shift cisplatin killing the same way; inactive = no consistent shift, or siRNA harmful alone.
The deposit covers about 23,000 reagents; this is a part drawn at random. 455 of them (2%) count as active. 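Active includes both protection and sensitisation; some change values fall well beyond the stated -50 to +50 range.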 Not given: the amount of reagent.

gene | two-siRNA summed score (-2 to +2) | mean protection from cisplatin (shift in death) (%) | protection from cisplatin (shift in death), siRNA C (%) | protection from cisplatin (shift in death), siRNA D (%) | outcome
AKR1B10 (aldo-keto reductase family 1 member B10) | 0 | 4 | -0.1 | 8.2 | inactive
LOC402709 | 0 | 5.8 | -5.2 | 16.8 | inactive
ADRA1A (adrenoceptor alpha 1A) | 1 | 7.6 | 0.4 | 14.9 | inactive
PTF1A (pancreas associated transcription factor 1a) | 0 | -9.3 | -8.2 | -10.5 | inactive
SGO1 (shugoshin 1) | -1 | -4.4 | -19.8 | 11 | inactive
DNER (delta/notch like EGF repeat containing) | 2 | 26.4 | 31.3 | 21.6 | active
TNFAIP6 (TNF alpha induced protein 6) | 0 | 1.7 | 0.7 | 2.6 | inactive
LRRC39 (leucine rich repeat containing 39) | 1 | 8.2 | 1.8 | 14.6 | inactive
TWIST2 (twist family bHLH transcription factor 2) | 0 | -1.7 | -6.5 | 3.1 | inactive
KRT33B (keratin 33B) | -2 | -17.3 | -17.2 | -17.4 | active
KLK2 (kallikrein related peptidase 2) | 0 | 10.6 | 17.1 | 4 | inactive
NPR2 (natriuretic peptide receptor 2) | 0 | -6.8 | -6.9 | -6.7 | inactive
ELP3 (elongator acetyltransferase complex subunit 3) | 0 | 10.3 | 8.5 | 12.1 | inactive
EFEMP1 (EGF-like fibulin extracellular matrix protein 1) | 0 | 7.2 | 9.9 | 4.4 | inactive
WNT7A (Wnt family member 7A) | -1 | -19.3 | -10.5 | -28 | inactive
MAN2C1 (mannosidase alpha class 2C member 1) | 0 | -12.5 | -19.9 | -5 | inactive
LOC153959 | 0 | 4.5 | -0.4 | 9.5 | inactive
PKN2 (protein kinase N2) | -2 | -19.6 | -20.9 | -18.3 | active
FLT1 (fms related receptor tyrosine kinase 1) | 0 | -3.7 | 0.3 | -7.7 | inactive
LOC392193 | 1 | 10.6 | 16 | 5.2 | inactive
ROS1 (ROS proto-oncogene 1, receptor tyrosine kinase) | 1 | 5.3 | -7.6 | 18.3 | inactive
TMPRSS11B (transmembrane serine protease 11B) | 1 | 8.3 | 20.6 | -3.9 | inactive
POC5-DT (POC5 divergent transcript) | 0 | 4.4 | 3.9 | 4.8 | inactive
NDUFAF3 (NADH:ubiquinone oxidoreductase complex assembly factor 3) | 0 | 1.1 | -9.3 | 11.4 | inactive
PRDM5 (PR/SET domain 5) | 1 | 7.5 | 8.9 | 6 | inactive
PEBP1 (phosphatidylethanolamine binding protein 1) | 1 | 11.9 | 23.9 | 0 | inactive
TLR10 (toll like receptor 10) | 0 | 8.3 | 7.6 | 9.1 | inactive
VPS53 (VPS53 subunit of GARP complex) | 0 | 1.9 | -6.7 | 10.6 | inactive
CXCR6 (C-X-C motif chemokine receptor 6) | -1 | -9.1 | -15.1 | -3.2 | inactive
LOC441138 | 0 | 3.9 | 3.9 | 4 | inactive
LOC387825 | 0 | 12.1 | 10.8 | 13.5 | inactive
NEIL1 (nei like DNA glycosylase 1) | 0 | 21.4 | 10 | 32.7 | inactive
PKN3 (protein kinase N3) | 1 | 21.6 | 35.9 | 7.2 | inactive
HNRNPABP1 (heterogeneous nuclear ribonucleoprotein A/B pseudogene 1) | 0 | 9.4 | 2.4 | 16.4 | inactive
LILRB3 (leukocyte immunoglobulin like receptor B3) | -1 | -24 | -23.8 | -24.1 | inactive
LOC390748 | 0 | 7.7 | 14 | 1.4 | inactive
DEFB104A (defensin beta 104A) | 0 | 9.5 | 6.1 | 12.9 | inactive
CHPF2 (chondroitin polymerizing factor 2) | -1 | -5 | 3.7 | -13.8 | inactive
RNF175 (ring finger protein 175) | 0 | 2.4 | 1.7 | 3.1 | inactive
TMEM63A (transmembrane protein 63A) | 0 | 3 | 6.4 | -0.4 | inactive
FGFR1 (fibroblast growth factor receptor 1) | 0 | -4 | -6.5 | -1.5 | inactive
DAZAP2 (DAZ associated protein 2) | 0 | 1.4 | -0.5 | 3.4 | inactive
GATAD2A (GATA zinc finger domain containing 2A) | 0 | -7.7 | -5.7 | -9.6 | inactive
GSTZ1 (glutathione S-transferase zeta 1) | -1 | -19.8 | -26.7 | -12.9 | inactive
CST6 (cystatin E/M) | 1 | 5.7 | -7.5 | 18.9 | inactive
ATP6AP2 (ATPase H+ transporting accessory protein 2) | 0 | 8.1 | 13.8 | 2.4 | inactive
SFPQ (splicing factor proline and glutamine rich) | 1 | 5.6 | 0.3 | 10.9 | inactive
LOC389268 | 0 | 7 | 4.7 | 9.3 | inactive
SLC9A6 | -1 | -8.9 | 3.8 | -21.5 | inactive
KIAA1143 | 1 | 11.2 | 10.8 | 11.5 | inactive
POLR2J2 (RNA polymerase II subunit J2) | 0 | 6.5 | 4.7 | 8.2 | inactive
ZDHHC1 (zDHHC palmitoyltransferase 1) | 1 | 8.2 | 5.3 | 11.1 | inactive
PIGS (phosphatidylinositol glycan anchor biosynthesis class S) | 0 | -0.6 | 4.6 | -5.7 | inactive
GABRG2 (gamma-aminobutyric acid type A receptor subunit gamma2) | -1 | -6.1 | -22.6 | 10.4 | inactive
ADAMTS13 (ADAM metallopeptidase with thrombospondin type 1 motif 13) | -1 | -0.4 | 29 | -29.9 | inactive
CLEC10A (C-type lectin domain containing 10A) | 0 | 4 | 7.8 | 0.2 | inactive
S100A6 (S100 calcium binding protein A6) | 0 | 2.8 | 10.3 | -4.6 | inactive
PCLAF (PCNA clamp associated factor) | 0 | 4.9 | -6.7 | 16.4 | inactive
KIR2DS3 | 0 | 5.9 | 15.7 | -3.8 | inactive
LOC389087 | 0 | -2.6 | -11.2 | 5.9 | inactive
SLC7A13 | 0 | 13.8 | 37.1 | -9.5 | inactive
ADAMTS15 (ADAM metallopeptidase with thrombospondin type 1 motif 15) | -1 | -9 | 0.3 | -18.3 | inactive
AVPI1 (arginine vasopressin induced 1) | 0 | 2.9 | 0.7 | 5.1 | inactive
SLC44A2 | 0 | 8.1 | 6.9 | 9.3 | inactive
LOC343717 | 0 | -6.9 | -4.5 | -9.3 | inactive
CKS1B (CDC28 protein kinase regulatory subunit 1B) | 0 | -2.7 | -21.9 | 16.4 | inactive
LOC389293 | 0 | 10 | -1.6 | 21.6 | inactive
MTNR1A (melatonin receptor 1A) | 0 | 5.5 | 10.8 | 0.2 | inactive
FAM178B (family with sequence similarity 178 member B) | 0 | 0.3 | 3.1 | -2.5 | inactive
ZPBP (zona pellucida binding protein) | 0 | 17.2 | 17.5 | 17 | inactive
WDPCP (WD repeat containing planar cell polarity effector) | 0 | -0.2 | -3.5 | 3 | inactive
OR51A4 (olfactory receptor family 51 subfamily A member 4) | 0 | 6.9 | 7.8 | 5.9 | inactive
MTF2 (metal response element binding transcription factor 2) | 0 | -19.2 | -24.9 | -13.4 | inactive
